Assay results from patent US20230358737A1, “CONTINUOUSLY CHEMICALLY ENHANCED APTAMER SENSORS” (University of Cincinnati, priority 2020, published 2023).

What was measured:
[1] = U-boat pH and salt diffusion test through oil-impregnated membrane; type: physicochemical; details: pH 3 in control chamber
[2] = transwell test of cortisol partitioning through oil-soaked track-etch membranes, ELISA; type: physicochemical; details: 10 μM cortisol in bottom well, 2 hours, room temperature

SMILES: CCCCCCCCCCO [1-Decanol]
- pH change of monitored solution ([1]; after 10 hours): fails to maintain the pH within two units
- cortisol concentration in upper well relative to tetradecane membrane [2]: more than 5 ×

SMILES: CCCCCCCCCCCCCC [Tetradecane]
- pH change of monitored solution ([1]; within 8 hours): within one unit
- rank by ELISA cortisol concentration in upper well [2]: second-ranking
